Test results published in publication doi:10.1101/2021.06.21.449290.
No constants are given. Whether binding was seen depends on the method and setting. Binding seen in cells or lysates may run through a third protein. A yes stands for co-enrichment or nearness to the bait. Other partners may have been found.

Target: Cdh3-GFP (Xenopus)
Assay: affinity purification with mass spectrometry

| Binder | binding |
| --- | --- |
| Plakoglobin (protein, UniProt P30998 1-738) MDLGDVVEMPMKVTEWQKTYTYDSGINSGINTSVPSLNGKMVIEDDSLAYPNSYTTVKTTTYTQQQNPDMESHLNMTRAQRVRAAMYPETVEDHSYLFSTQIEGQQTNVQKLAEPSQMLKSAIMHLINYQDDAELATRAIPELTKLLNDEDPMVVNKASMIVNQLSKKEASRKALMQSPQIVAAIVRTMQHTSDMDTARCTTSILHNLSHHREGLLSIFKSGGIPALVRMLSSPVESVLFYAITTLHNLLLYQEGAKMAVRLADGLQKMVPLLNKNNPKFLAITTDCLQLLAYGNQESKLIILGNGGPQGLVQIMRNYNYEKLLWTTSRVLKVLSVCPSNKPAIVEAGGMQALGKHLTSNSPRLVQNCLWTLRNLSDVATKQEGLDNVLKILVNQLSSDDVNVLTCATGTLSNLTCNNGRNKTLVTQSNGVESLIHTILRASDKDDIAEPAVCAMRHLTSRHQDAEVAQNSVRLHYGIPAIVKLLNPPYQWPLVKATIGLIRNLALCPANHAPLYDAGVIPRLVQLLVKSHQDAQRHAASGTQQPYTDGVKMEEIVEGCTGALHILARDPVNRMDIYKLNTIPLFVQLLYSPVENIQRVSSGVLCELAQDKEAADTIDAEGASAPLMELLHSRNEGIATYAAAVLFRISEDKNADYRKRVSVELTNAIFRQDPAAWEAAQSMIPLNDPYSDEMENYRAMYPEDIPLEPMGGDMDVEYAMDGYSDHPGRGHYADNHMMA | binds |
| p120-catenin (protein, UniProt Q8AXM9 1-859) MDEPESESPASILASVRAQEAQFELLSRALEEERRHVTAQLDRVWVTPQEPPLANGSLTRRQQDGLPFLYTPTRMEAHSVHADERYVIDDSSYKSCTLTDESRCSEIPIQTVVGYSQTLDRPYREAAGSGGAYTTVPRNYHFRGPGVDSTMPLISQSPHPGYSSLSRPNQRYRSVDPFRGPGYGPQPQVRGGGLGGSQSDLLSGRIYGSEDAYGLEDDRRSLGGFIDGPDYATTGRRGANGGDPRRRLRSYEDPLSDHFGSIPTSGSLSSLGPAPLTLAPNSGPWRHPELPEVLAMLSYTLDAVRLNAAAYLQHLSYRNEDVKREVCRLRGIPPLISLLEDPRAPIRLAACGALKNLSYGPARENKMAVKNCDGVPALARLLRRRGEGIEGRELAECVTGTLWNLSSLDSVKMELVDQALYTLTQEILVPHSGWQQDGGMQDRVEGKPRHVEWEPALVNTTGCLRNISSERSEARRKMRECEGLVDSVVHILRSEVSHGLVDSKLLENVVCLLRNISYHVHREIPHAEKYMESPQNASAETQNPSCFGVRRGKGKKASEEAVDTVDFPKQTMPAQGYDLLFQPEIVRLYISLVKSSHTPAVLEASAGAIQNLCAGNWVYGRCIRAAVRQEKGLSSLADHLTHESERVVRAICGALRNLCGDNRNRELIGKHALNSLVARLSSSSAQSSALSEDTNVCVINTIHEVISGNLEAAKRLRESQGIERLVLINKGGGRSEREIRAAGFCLQTIWGYKELRRPLEKDGWKKSDFQVSTAATSSVQGYDDSTLPLIDRNLKNEKKSVNADIPLNDFIADQFTHNGDSSNRLPTRSDELSELDPLKECSVSAGGSLNLGDAEDQRV | binds |
